Measured values as given in article PMC12224998.
These are yes or no findings as the source states them, for the method shown. Binding seen in cells or lysates may run through a third protein. Some results given as binding are weak or reduced against the parent protein; the word gives no strength.

Protein sequences, listed by entry. Tags and fused reporters are not part of them. Residues count along the entry.
UniProt P15941, residues 24-1255: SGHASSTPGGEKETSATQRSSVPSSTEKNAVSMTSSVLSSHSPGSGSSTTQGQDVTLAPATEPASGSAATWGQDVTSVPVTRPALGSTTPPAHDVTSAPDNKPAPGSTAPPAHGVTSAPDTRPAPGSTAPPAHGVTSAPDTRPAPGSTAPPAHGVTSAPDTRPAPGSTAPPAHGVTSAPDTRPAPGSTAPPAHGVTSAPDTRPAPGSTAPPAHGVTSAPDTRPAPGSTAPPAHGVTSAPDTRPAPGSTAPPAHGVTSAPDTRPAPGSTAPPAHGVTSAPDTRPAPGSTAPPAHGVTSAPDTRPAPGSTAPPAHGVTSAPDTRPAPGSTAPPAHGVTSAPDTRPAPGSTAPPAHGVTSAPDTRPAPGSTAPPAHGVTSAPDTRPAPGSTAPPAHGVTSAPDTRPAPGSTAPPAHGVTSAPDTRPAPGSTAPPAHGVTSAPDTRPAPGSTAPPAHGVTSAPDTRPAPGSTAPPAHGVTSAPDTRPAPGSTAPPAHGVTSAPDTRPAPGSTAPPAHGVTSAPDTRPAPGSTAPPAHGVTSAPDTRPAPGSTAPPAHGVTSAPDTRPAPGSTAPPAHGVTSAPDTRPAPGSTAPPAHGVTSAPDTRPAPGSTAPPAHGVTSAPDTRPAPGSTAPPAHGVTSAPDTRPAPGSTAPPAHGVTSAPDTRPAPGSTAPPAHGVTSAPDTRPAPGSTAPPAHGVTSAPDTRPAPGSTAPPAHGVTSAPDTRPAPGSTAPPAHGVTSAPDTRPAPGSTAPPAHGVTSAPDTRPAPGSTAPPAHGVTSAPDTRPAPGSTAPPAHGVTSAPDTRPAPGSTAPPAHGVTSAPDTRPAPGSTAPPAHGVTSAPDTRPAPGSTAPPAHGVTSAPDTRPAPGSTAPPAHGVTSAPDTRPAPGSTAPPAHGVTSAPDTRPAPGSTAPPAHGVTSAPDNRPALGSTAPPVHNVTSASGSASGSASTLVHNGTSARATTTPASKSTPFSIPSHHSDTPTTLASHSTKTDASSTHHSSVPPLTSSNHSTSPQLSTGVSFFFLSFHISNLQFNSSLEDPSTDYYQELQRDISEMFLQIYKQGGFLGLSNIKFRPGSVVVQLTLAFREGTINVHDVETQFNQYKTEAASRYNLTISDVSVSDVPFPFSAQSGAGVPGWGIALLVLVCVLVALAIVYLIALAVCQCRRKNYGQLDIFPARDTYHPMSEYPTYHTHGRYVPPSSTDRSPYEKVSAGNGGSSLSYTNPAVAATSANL
UniProt P30153: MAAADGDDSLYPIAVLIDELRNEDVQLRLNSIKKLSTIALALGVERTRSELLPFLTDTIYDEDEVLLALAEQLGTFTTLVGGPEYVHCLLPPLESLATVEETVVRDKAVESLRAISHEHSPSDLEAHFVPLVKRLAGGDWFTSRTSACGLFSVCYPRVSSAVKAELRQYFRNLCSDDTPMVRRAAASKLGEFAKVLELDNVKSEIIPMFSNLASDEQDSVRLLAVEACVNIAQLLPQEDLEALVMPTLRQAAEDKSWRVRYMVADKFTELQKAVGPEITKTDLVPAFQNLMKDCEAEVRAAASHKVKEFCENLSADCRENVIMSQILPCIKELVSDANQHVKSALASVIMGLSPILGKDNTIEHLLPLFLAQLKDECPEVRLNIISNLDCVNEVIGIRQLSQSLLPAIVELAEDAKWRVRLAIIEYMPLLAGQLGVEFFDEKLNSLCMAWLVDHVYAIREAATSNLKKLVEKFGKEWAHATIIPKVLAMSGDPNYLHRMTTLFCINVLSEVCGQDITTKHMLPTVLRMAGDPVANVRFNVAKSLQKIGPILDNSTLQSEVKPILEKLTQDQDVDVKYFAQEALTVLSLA
UniProt Q15172: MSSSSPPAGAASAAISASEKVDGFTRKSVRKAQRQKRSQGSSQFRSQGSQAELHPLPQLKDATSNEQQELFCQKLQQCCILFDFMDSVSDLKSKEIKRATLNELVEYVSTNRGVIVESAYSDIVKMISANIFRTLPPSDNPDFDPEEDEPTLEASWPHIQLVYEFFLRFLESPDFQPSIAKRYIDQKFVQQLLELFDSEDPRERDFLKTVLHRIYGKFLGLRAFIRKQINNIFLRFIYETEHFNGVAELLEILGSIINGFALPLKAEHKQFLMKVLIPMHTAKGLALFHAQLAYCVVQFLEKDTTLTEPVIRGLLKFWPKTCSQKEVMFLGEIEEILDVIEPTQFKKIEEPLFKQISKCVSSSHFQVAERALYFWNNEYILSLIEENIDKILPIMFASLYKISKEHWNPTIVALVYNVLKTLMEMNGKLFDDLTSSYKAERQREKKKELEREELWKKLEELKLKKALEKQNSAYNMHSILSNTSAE

Biological target: MUC1 full length with HA tag at the C-terminal (UniProt P15941)
Assay: co-IP; MUC1-HA-overexpressing HEK293T cells; NETN150 lysis buffer, antibody overnight at 4 °C, protein A/G plus agarose, western blot (Figure S3C)

| binding | Substance |
| --- | --- |
| binds | PP2A Aα subunit (from UniProt P30153 1-589) |
| binds | PP2A B56α subunit (from UniProt Q15172 1-486) |
